The values that follow come from publication PMC8898360.

Amino acid sequences for entries named in this document (tags omitted). Residues count along the entry.
UniProt P16066, residues 33-1061: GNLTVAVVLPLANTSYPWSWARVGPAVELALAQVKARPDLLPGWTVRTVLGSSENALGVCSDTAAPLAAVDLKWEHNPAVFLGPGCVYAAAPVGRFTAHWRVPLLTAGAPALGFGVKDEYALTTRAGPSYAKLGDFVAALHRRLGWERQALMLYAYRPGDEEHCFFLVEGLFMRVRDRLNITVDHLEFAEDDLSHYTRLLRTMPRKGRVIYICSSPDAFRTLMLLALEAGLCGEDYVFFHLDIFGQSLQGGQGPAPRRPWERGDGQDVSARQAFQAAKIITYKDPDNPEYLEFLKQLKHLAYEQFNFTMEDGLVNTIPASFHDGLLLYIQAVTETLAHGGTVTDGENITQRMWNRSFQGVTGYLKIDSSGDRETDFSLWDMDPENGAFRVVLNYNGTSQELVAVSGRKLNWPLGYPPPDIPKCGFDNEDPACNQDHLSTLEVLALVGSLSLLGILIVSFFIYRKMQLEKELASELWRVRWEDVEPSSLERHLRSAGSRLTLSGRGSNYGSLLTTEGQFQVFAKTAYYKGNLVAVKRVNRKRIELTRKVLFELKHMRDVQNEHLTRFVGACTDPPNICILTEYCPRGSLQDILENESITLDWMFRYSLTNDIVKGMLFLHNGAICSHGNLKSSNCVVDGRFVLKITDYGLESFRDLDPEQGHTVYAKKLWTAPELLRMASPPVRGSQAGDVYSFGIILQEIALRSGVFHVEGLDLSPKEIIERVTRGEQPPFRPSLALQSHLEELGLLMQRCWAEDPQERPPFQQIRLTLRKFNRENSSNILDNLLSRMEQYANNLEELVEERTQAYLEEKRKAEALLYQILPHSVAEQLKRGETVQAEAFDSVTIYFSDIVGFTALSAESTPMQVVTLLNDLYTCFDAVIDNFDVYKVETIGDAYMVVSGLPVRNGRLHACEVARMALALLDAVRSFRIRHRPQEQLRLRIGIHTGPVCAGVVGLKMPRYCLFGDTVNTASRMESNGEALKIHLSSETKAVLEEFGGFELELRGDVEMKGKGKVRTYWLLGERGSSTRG
UniProt Q8N884: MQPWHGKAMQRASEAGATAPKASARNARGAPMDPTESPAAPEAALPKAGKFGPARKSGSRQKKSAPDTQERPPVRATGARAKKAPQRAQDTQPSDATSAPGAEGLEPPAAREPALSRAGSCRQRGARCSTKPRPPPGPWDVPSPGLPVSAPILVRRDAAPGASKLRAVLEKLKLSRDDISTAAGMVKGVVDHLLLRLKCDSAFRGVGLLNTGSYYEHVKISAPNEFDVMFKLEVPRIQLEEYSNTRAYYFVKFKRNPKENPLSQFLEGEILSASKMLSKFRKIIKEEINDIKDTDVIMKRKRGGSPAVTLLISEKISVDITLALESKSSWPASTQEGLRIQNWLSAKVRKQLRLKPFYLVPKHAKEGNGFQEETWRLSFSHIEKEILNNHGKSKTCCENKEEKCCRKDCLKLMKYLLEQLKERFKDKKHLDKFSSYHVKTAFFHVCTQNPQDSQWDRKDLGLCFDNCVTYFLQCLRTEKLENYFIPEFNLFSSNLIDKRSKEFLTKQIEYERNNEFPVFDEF

The assay deals with ANP receptor NPR-A (human (endogenous in HT-29)) (UniProt P16066). Nature of the assay: co-IP; HT-29 cell lysates incubated with anti-NPR-A antibody at 4°C overnight, Protein A/G agarose resin, western blotting for NPR-A, cGAS and GAPDH; cells treated with DMXAA and/or ANP for 24 h beforehand. On the technique in general: In western blotting, separated proteins are transferred to a membrane and probed.

These are yes or no findings as the source states them, for the method shown. Binding seen in cells or lysates may run through a third protein. Some binding calls cover weakened binding; strength is not graded here.

For the substance “cyclic GMP-AMP synthase (cGAS) (from UniProt Q8N884 1-522)”, the binding result is recorded as “binds”.
